In PMC6420573:
These are yes or no findings as the source states them, for the method shown. Binding seen in cells or lysates may run through a third protein. Some binding calls cover weakened binding; strength is not graded here. Tags and fused reporters may be left off the sequences shown.

Chains of the proteins cited; added tags and fusions are not shown.
UniProt P22002: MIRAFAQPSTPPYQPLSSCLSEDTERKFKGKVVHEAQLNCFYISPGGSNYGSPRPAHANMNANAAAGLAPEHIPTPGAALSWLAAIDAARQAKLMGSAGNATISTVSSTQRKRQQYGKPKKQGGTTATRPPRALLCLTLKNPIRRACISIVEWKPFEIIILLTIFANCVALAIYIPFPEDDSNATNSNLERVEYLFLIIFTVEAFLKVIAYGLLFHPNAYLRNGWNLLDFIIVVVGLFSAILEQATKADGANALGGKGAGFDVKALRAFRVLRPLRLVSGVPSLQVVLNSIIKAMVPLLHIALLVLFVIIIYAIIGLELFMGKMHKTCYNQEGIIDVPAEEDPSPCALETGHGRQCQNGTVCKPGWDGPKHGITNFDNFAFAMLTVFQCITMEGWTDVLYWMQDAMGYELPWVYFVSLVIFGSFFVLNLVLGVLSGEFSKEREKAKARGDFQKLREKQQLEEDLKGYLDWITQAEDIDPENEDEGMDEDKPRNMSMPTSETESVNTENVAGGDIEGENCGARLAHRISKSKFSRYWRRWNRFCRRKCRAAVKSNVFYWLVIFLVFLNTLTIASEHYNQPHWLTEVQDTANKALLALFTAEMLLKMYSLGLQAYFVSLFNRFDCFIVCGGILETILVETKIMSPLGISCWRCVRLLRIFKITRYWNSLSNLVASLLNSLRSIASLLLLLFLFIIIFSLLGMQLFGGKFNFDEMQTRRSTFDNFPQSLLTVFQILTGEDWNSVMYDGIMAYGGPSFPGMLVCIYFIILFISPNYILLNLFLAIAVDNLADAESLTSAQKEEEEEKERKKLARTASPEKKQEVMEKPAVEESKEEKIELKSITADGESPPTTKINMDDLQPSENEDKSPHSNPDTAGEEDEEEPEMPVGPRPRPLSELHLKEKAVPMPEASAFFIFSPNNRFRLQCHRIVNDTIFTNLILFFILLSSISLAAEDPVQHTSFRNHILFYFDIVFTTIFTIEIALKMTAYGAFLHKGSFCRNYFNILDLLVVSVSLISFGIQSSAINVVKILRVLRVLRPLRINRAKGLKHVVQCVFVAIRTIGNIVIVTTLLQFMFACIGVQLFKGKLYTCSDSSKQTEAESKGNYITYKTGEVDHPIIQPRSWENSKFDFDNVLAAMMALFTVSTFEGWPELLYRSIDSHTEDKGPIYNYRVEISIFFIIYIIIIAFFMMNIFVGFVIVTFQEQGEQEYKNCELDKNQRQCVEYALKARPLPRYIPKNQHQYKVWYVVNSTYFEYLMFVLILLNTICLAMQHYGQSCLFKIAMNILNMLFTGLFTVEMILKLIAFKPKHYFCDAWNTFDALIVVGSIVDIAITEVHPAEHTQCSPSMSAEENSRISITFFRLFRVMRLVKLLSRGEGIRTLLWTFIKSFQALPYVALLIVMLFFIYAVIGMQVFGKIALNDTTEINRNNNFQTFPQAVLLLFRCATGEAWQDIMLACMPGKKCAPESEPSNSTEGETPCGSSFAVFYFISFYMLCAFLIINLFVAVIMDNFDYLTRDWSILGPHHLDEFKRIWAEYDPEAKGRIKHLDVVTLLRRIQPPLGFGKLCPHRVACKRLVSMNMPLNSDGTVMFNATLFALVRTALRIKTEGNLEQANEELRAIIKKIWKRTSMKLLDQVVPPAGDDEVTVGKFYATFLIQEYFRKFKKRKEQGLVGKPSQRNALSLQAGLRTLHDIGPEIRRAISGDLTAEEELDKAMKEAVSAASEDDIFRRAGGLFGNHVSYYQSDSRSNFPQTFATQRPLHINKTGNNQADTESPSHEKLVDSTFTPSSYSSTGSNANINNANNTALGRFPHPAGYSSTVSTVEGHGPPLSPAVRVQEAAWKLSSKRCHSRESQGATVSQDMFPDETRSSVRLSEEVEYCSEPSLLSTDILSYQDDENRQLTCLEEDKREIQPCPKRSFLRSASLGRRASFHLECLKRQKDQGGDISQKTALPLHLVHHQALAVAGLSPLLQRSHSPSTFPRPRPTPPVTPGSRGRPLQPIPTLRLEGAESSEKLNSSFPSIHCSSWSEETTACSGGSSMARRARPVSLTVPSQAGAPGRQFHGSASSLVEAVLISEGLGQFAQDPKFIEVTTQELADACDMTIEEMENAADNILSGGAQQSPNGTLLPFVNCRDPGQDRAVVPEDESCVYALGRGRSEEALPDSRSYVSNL
UniProt P27732: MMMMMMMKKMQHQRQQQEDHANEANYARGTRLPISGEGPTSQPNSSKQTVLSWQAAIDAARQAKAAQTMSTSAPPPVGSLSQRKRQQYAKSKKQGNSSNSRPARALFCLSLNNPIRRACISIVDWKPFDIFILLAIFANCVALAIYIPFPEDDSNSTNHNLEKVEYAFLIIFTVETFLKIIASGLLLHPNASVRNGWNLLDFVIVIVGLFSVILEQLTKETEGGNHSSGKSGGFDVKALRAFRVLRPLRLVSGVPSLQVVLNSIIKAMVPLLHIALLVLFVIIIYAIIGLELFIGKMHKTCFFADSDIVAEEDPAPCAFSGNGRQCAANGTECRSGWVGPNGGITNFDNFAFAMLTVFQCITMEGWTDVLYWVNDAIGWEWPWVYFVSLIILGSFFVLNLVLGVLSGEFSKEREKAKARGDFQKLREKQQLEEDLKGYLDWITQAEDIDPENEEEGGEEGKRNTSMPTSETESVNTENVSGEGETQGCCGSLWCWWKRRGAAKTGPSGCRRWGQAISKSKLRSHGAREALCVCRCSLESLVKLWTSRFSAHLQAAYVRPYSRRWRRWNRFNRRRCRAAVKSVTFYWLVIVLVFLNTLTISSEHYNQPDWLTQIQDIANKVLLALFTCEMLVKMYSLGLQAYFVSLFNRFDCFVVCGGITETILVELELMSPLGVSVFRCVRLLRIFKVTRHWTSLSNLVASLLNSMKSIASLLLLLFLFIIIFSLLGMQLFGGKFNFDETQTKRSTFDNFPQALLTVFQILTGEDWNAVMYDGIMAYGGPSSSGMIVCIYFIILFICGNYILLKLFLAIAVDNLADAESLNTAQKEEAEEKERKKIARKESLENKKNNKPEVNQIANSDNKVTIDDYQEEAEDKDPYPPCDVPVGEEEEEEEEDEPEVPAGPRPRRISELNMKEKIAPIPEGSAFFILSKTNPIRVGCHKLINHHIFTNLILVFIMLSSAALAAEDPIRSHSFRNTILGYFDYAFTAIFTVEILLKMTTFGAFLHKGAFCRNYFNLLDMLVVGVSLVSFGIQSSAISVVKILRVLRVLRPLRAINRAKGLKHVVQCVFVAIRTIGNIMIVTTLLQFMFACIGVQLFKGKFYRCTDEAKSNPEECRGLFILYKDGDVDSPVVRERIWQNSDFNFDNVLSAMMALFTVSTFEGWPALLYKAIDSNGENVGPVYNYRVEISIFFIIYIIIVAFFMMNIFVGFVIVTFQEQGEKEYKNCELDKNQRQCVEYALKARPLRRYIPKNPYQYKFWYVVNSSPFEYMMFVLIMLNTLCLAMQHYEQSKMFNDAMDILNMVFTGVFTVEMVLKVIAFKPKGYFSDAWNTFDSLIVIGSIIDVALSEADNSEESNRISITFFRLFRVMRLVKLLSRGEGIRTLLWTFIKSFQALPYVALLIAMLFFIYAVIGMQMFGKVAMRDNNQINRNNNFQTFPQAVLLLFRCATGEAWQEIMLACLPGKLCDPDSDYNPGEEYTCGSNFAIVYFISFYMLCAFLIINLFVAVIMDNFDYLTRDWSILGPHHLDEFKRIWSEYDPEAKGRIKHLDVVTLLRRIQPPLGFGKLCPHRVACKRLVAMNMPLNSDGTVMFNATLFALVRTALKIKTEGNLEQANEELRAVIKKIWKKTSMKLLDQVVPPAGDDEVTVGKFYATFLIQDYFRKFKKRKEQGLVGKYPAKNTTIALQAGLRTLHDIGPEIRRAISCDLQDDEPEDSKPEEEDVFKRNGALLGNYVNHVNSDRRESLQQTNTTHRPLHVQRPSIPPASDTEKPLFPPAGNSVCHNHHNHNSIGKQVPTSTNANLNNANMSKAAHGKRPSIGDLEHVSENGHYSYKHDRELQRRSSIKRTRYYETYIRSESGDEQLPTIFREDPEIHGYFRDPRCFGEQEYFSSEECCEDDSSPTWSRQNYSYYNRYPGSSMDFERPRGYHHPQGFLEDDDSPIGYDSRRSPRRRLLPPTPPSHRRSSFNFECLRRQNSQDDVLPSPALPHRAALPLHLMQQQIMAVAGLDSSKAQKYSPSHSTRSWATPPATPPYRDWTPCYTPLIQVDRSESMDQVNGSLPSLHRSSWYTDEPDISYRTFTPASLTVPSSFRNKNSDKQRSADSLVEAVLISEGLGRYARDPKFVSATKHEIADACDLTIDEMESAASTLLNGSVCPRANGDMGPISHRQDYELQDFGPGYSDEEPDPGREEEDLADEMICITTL

Tests used:
[1] = biological target: L-type CaV1.2 (CACNA1C) (rat (endogenous in INS-1 832/13)) (UniProt P22002); assay: proximity ligation; Duolink in situ detection in fixed (3% PFA), permeabilised INS-1 832/13 cells; endogenous proteins; primary antibodies rabbit anti-CaVγ4 and mouse anti-CaV1.3; cells treated with 5 or 20 mM glucose (24 h); spots imaged by confocal microscopy
[2] = biological target: L-type CaV1.3 (CACNA1D) (rat (endogenous in INS-1 832/13)) (UniProt P27732); assay: as above

B1: voltage-gated Ca2+ channel subunit gamma4 (CaVγ4) (protein, UniProt Q8VHW9 1-327)
chain: MVRCDRGLQMLLTTAGAFAAFSLMAIAIGTDYWLYSSAHICNGTNLTMDDGPPPRRARGDLTHSGLWRVCCIEGIYKGHCFRINHFPEDNDYDHDSSEYLLRIVRASSVFPILSTILLLLGGLCIGAGRIYSRKNNIVLSAGILFVAAGLSNIIGIIVYISSNTGDPSDKRDEDKKNHYNYGWSFYFGALSFIVAETVGVLAVNIYIEKNKELRFKTKREFLKASSSSPYSRMPSYRYRRRRSRSSSRSTEASPSRDASPVGLKITGAIPMGELSMYTLSREPLKVTTAASYSPDQDAGFLQMHDFFQQDLKEGFHVSMLNRRTTPV
**Q.** With B1 as the binder, how does the binding [1] read?
**A.** The binding was “no binding”.

**Q.** And the binding [2]?
**A.** The binding was “binds”.
